Reference: the supplement of paper PMC10338343
± gives the standard deviation. The list shows a part of the results. The uncertainty is large for many entries.

What follows are sequences tested on EfPiwi piRISC loaded with L1MC piRNA (26 nt) (assay: pre-steady-state target cleavage rate (min^-1); guide: L1MC piRNA 5'p-UAACUAAAUACUAUGCAAGCUGUAGG; MIWI and MILI are mouse PIWI proteins and EfPiwi is from a freshwater sponge; tags in brackets are library labels; higher = faster piRNA-guided slicing of the target). Conditions: auxiliary factor: 500 nM Ephydatia muelleri Gtsf1.
Outline: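 A transcribed, DNA-blocked target RNA library […] was incubated at 33 °C for 0–8 or 0–960 min with 1 nM active affinity-purified piRISC carrying one synthetic guide, in HEPES–potassium acetate buffer with or without 500 nM GTSF1 partner protein. Uncleaved targets were then sequenced and normalised to depth and to weakly complementary targets. Data from three trials were pooled, with k3 capped at 0.0001 min^-1, and a burst-and-steady-state fit yielded the pre-steady-state cleavage rate.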

Sequence | pre-steady-state target cleavage rate
UCCUGGAUGUGCUUGGAUAGUAUUUAGUUA | 0.0042 ± 0.0044
UCCUGCUACAGCUUGCAUAGUAAUUAGUUA | 0.0061 ± 0.0022
UCCUGGAUGUGCUUGCAUUGUAUUAAGUUA | 0.000452 ± 0.0082
UCCUGCUACAGGUUGCAUAGUAUUAAGUUA | 0.00526 ± 0.0024
UCCUCCUAGAGCUUGCAUAGUAUUAAGUUA | 0.00604 ± 0.0026
UCCUCCUACAGGUUGCAUAGUAUAUAGUUA | 0.0129 ± 0.0046
UCCUGGAUCAGCUUGCAAUGUAUUUAGUUA | 0.00462 ± 0.0039
UCCUGCUCCAGCUUGCAUAGUAUUUAGUUA | 0.0877 ± 0.024
UCCUCCAACUGCUUGCAUAGUAUUUAGUUA | 0.0183 ± 0.0064
UCCUGGAUGUCGAACGUUAGUAAUUAGAUA | 0.000196 ± 0.029
UCCUCCUACAGACUUGCAUAGUAUUUAGUUA | 0.017 ± 0.006
UCCUCCUACAGCUUGCAUAUAUUUAGUUA | 0.00725 ± 0.0034
UCCUCCUACACGUUGCAUAGUAUUUAGUUA | 0.136 ± 0.035
UCCUGGAUGUCCUUGCAAAGUAUUUAGUUA | 0.00235 ± 0.0036
UCCUCCUACUGCUUGCUUAGUAUUUAGUUA | 0.0504 ± 0.015
UCCUCCUACAGCUUGCAUAGUAUUAAGUUA | 0.00589 ± 0.0029

Sequence | pre-steady-state target cleavage rate
UCCUGCAUCAGCUUGCAUAGUAUUUAGUAA | 0.00847 ± 0.0021
UCCUGGAUCAGCUUGCAUUGUAUUUUGUUA | 0.00121 ± 0.0042
UCCUGGAUCAGCCUGCAUAGUAUUUAGUUA | 0.0209 ± 0.006
UCCUCCUACAGUUGCAUAGUAUUUAGUUA | 0.0777 ± 0.021
UCCUGGAUCAGGUUGCAAAGUAUUUAGUUA | 0.0172 ± 0.0054
UCCUGGAACAGCUUGCAUAGUAUUGUAGUUA | 0.00741 ± 0.0027
UCCUCCUACAGCUUGCAAAGUAUUUACUUA | 0.00282 ± 0.0024
UCCUGCUACAGCUUGCAUAGUAUAAAGUUA | 0.00347 ± 0.0022
UCCUGGAUGUCGAACGUAUGUUUUUUGUUA | 0.000297 ± 0.018
UCCUGCUACUGGUUGCAUAGUAUUUAGUUA | 0.0113 ± 0.0035
UCCUGGAUGUCGAACGUUAGUAUAUUAGUUA | 0.000475 ± 0.013
UCCUGGAUGUCGAACGUAUCUCUUUAGUUA | 0.000135 ± 0.032
UCCUGCUACAGCUUGCAUAGUAUUAACUUA | 0.00397 ± 0.0027
UCCUGGAUGAGCUUGCAUCGUAUUUAGUUA | 0.00975 ± 0.0029
UCCUGGUACAGCUUGCAUAGAAUUUAGAAA | 0.00253 ± 0.0021
UCCUCGUUCAGCUUGCAUAGUAUUUAGUUA | 0.104 ± 0.021

A stretch of the results above, as a working copy:
Sequence | pre-steady-state target cleavage rate
UCCUGCAUCAGCUUGCAUAGUAUUUAGUAA | 0.00847 ± 0.0021
UCCUGGAUCAGCUUGCAUUGUAUUUUGUUA | 0.00121 ± 0.0042

Same assay, conditions: auxiliary factor: none (no Gtsf1)

Sequence | pre-steady-state target cleavage rate
UCCUGGAUGUCGAACGUAAGUAUUUAUUA | < 0.0001
UCCUGGUACAGCUUGCAUAGUUAUUAGUUA | 0.000939 ± 0.0097
UCCUGGAUGUCGAACGUAUGUAUCUAGUUA | 0.000136 ± 0.033
UCCUGGUACAGCCUUGCAUAGUAUUUAGUUA | 0.00039 ± 0.034
UCCUGCUUCAGCUUGCAUAGUUUUUAGUUA | 0.000606 ± 0.01
UCCUGGAUCAGGUUGCAUAGUAUUUAGUUA | 0.00103 ± 0.01
UCCUGGAUGUCGAACGUAAGAAUUUAGUAA | < 0.0001
UCCUGGUACAGCUUGCAUAGUAUUUAGUGA | 0.00109 ± 0.0083
